Reference: publication PMC8990465
These are yes or no findings as the source states them, for the method shown. In cells and extracts the contact can be indirect. A yes stands for co-enrichment or nearness to the bait. Other partners may have been found. Tags and fused reporters may be left off the sequences shown.

Target: T1, CLDN10 (Claudin-10) overexpressed with 3xflag (UniProt P78369)
T1 sequence: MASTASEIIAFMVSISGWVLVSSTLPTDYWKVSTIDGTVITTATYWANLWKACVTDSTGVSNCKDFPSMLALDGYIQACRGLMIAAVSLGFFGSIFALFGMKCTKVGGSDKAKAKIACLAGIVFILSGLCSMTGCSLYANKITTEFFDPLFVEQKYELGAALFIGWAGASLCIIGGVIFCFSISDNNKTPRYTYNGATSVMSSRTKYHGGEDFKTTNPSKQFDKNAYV
Assay: affinity purification with mass spectrometry; anti-Flag M2 magnetic beads in cell lysate (IP lysis buffer) overnight at 4 °C; two silver-stained bands seen only in the CLDN10 overexpression group were sent to mass spectrometry

- binding: binds
B1: ATP5O protein (ATP synthase subunit O, mitochondrial) (protein, UniProt P48047 24-213)
chain: FAKLVRPPVQVYGIEGRYATALYSAASKQNKLEQVEKELLRVAQILKEPKVAASVLNPYVKRSIKVKSLNDITAKERFSPLTTNLINLLAENGRLSNTQGVVSAFSTMMSVHRGEVPCTVTSASPLEEATLSELKTVLKSFLSQGQVLKLEAKTDPSILGGMIVRIGEKYVDMSVKTKIQKLGRAMREIV
